According to US7572606B1 (Nereus Pharmaceuticals, Inc., priority 2005, dated 2009):
Some entries share one result that the patent states for a list of compounds. Some ranges recur; such a range may be that of the whole group of compounds.

Chains of the proteins cited; added tags and fusions are not shown. Residues count along the entry.
UniProt A0A5F9DQW2, 1-212: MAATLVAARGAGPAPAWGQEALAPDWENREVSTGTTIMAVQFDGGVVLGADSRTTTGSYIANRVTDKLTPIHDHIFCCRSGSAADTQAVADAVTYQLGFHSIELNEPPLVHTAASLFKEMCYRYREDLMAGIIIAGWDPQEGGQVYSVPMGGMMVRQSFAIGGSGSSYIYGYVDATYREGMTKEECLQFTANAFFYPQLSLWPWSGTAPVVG

target: caspase-like (PGPH) activity of rabbit muscle 20S proteasome (Oryctolagus cuniculus, UniProt A0A5F9DQW2); test: In vitro inhibition of 20S proteasome, Z-LLE-AMC; details: read-out: EC50 Caspase-like, range for the listed group; units printed with the two limits

SMILES | EC50
CCC[C@H]1C(=O)N[C@@]2([C@@H](O)[C@@H]3C=CCCC3)C(=O)O[C@@]12C [Formula II-30] | 0.956 to 8.7 µM
C[C@H]1C(=O)N[C@@]2([C@@H](O)[C@@H]3C=CCCC3)C(=O)O[C@@]12C [Formula II-20] | 0.956 to 8.7 µM
CCC(=O)OCC[C@H]1C(=O)N[C@@]2([C@@H](O)[C@@H]3C=CCCC3)C(=O)O[C@@]12C [Formula II-22] | 0.956 to 8.7 µM
COC(=O)CCSC(=O)[C@]1([C@@H](O)[C@@H]2C=CCCC2)NC(=O)[C@H](CCCl)[C@]1(C)O [Formula II-44] | 0.956 to 8.7 µM
COC(=O)CCSC(=O)C1(C(O)C2C=CCCC2)NC(=O)C2CCOC21C (centres unmarked) [Formula VI-1A] | 0.956 to 8.7 µM
